Data taken from US12109204B2, “Methods for treating muscular dystrophies” (The Regents of the University of California, priority 2018, dated 2024).

Tested on: hSSPN-EGFP myotubes (human sarcospan promoter reporter in C2C12)
Assay: hSSPN-EGFP reporter myotube assay (high-content imaging)
Format: cell-based, murine
Conditions: retest at 5.5 μM, robust strictly standardized mean difference
Description: C2C12 immortalized murine myoblasts cultured in growth media consisting of DMEM (Gibco) with 20% Fetal Bovine Serum (Sigma-Aldrich) at 37° C. with 5% CO2 were transfected with the hSSPN-EGFP or hSSPN-Luciferase linearized plasmids using Lipofectamine 3000 Transfection Reagent (Thermo Fisher Scientific). Transfected cells were selected using 800 μg/ml of G418 (Sigma-Aldrich) for 4 weeks to generate stable cell lines expressing reporter protein under control of the human SSPN promoter.
hSSPN-EGFP myoblasts were seeded at 500 cells per well in 50 μl of growth media in 384-well black, clear bottom microplates (Greiner) using a Multidrop 384 (Thermo Fisher Scientific) and incubated for 3 days. Upon reaching confluency, the growth media was replaced with 50 μl of differentiation media consisting of DMEM with 2% horse serum (Sigma-Aldrich) using an EL406 combination washer dispenser (Biotek). At day 2 of differentiation, the media on the cells was aspirated, left with a residual volume of 10 μl, and replaced with 30 μl of fresh differentiation media. 0.5 μl of small molecule in DMSO or DMSO alone (for vehicle and positive control wells) was added to each well using a Biomek Fx (Beckman). To ensure proper mixing of the DMSO, 50 μl of additional differentiation media was added to all wells except the positive control treated wells, which instead received 50 μl of media containing insulin transferrin selenium (ITS, Gibco) to reach a final concentration of 1% ITS. The final concentration of drug in each treated well was 5.5 μM in 0.55% DMSO and 0.55% DMSO for vehicle and positive control treated wells. After 48 hours of incubation, the media was replaced with Fluorobrite DMEM (Gibco) and each plate was imaged using ImageXpress Micro Confocal High Content Imaging System (Molecular Devices). The fluorescent intensity of imaged cells was determined using MetaXpress Analysis software (Molecular Devices). Analysis setting were as follows: top hat (size: 12, filter shape: circle), adaptive threshold (source: top hat, minimum width: 10, maximum width: 800, intensity above local background: 500), filter mask (filter type: minimum area filter, minimum value: 500). […]

Compound	hSSPN-EGFP SSMD*, Plate 1	hSSPN-EGFP SSMD*, Plate 2
Nc1nc(=O)c2ncn(COCCO)c2[nH]1 [Acyclovir, 2-amino-9-(2-hydroxyethoxymethyl)-3H-purin-6-one]	−0.37	0.19
O=c1[nH]c(=O)c2nc3ccccc3nc2[nH]1 [Alloxazine, 1H-benzo[g]pteridine-2,4-dione]	−0.03	0.21
COC(=O)N=N/C=C1\C=[N+]([O-])c2ccccc2N1O [Carbodox, methyl N-[(E)-(1-hydroxy-4-oxidoquinoxalin-4-ium-2-ylidene)methyl]iminocarbamate]	0.21	0.43
CCOC(=O)C1=C(C)NC(C)=C(C(=O)OC)C1c1cccc(Cl)c1Cl (stereo not drawn) [Felodipine, 5-O-ethyl 3-O-methyl 4-(2,3-dichlorophenyl)-2,6-dimethyl-1,4-dihydropyridine-3,5-dicarboxylate]	1.75	1.56
O=C1Nc2ccc(I)cc2/C1=C/c1cc(Br)c(O)c(Br)c1 [GW5074, (3Z)-3-[(3,5-dibromo-4-hydroxyphenyl)methylidene]-5-iodo-1H-indol-2-one]	0.67	0.78
CC(C)NCC(O)c1ccc(O)c(O)c1 (stereo not drawn) [Isoproterenol, 4-[1-hydroxy-2-(propan-2-ylamino)ethyl]benzene-1,2-diol]	0.26	0.26
COC(=O)C1=C(C)NC(C)=C(C(=O)OC(C)C)C1c1cccc2nonc12 (stereo not drawn) [Isradipine, 3-O-methyl 5-O-propan-2-yl 4-(2,1,3-benzoxadiazol-4-yl)-2,6-dimethyl-1,4-dihydropyridine-3,5-dicarboxylate]	1.79	1.50
CCOC(=O)C1=C(C)NC(C)=C(C(=O)OCC)C1c1ccccc1/C=C/C(=O)OC(C)(C)C [Lacidipine, diethyl 2,6-dimethyl-4-[2-[(E)-3-[(2-methylpropan-2-yl)oxy]-3-oxoprop-1-enyl]phenyl]-1,4-dihydropyridine-3,5-dicarboxylate]	0.69	1.02
CCCCN1CCCC1CNC(=O)c1cc(C#N)c2ccccc2c1OC (stereo not drawn) [Nafadotride, N-[(1-butylpyrrolidin-2-yl)methyl]-4-cyano-1-methoxynaphthalene-2-carboxamide]	−0.09	−0.01
C[C@]12CC[C@H]3[C@@H](CCC4=CC(=O)CC[C@@H]43)[C@@H]1CC[C@@H]2O [Nandrolone, (8R,9S,10R,13 S,14S,17S)-17-hydroxy-13-methyl-2,6,7,8,9,10,11,12,14,15,16,17-dodecahydro-1H-cyclopenta[a]phenanthren-3-one]	0.44	0.41
COC(=O)C1=C(C)NC(C)=C(C(=O)OC)C1c1ccccc1[N+](=O)[O-] [Nifedipine, dimethyl 2,6-dimethyl-4-(2-nitrophenyl)-1,4-dihydropyridine-3,5-dicarboxylate]	0.41	0.22
COC(=O)C1=C(C#N)NC(C)=C(C(=O)OC(C)C)C1c1cccc([N+](=O)[O-])c1 (stereo not drawn) [Nilvadipine, 3-O-methyl 5-O-propan-2-yl 2-cyano-6-methyl-4-(3-nitrophenyl)-1,4-dihydropyridine-3,5-dicarboxylate]	1.08	0.97
